Measured values taken from doi:10.1101/2024.12.04.626816.
No constants are given. Whether binding was seen depends on the method and setting. Binding seen in cells or lysates may run through a third protein. Some entries that bind do so weakly or less than the wild type. Blank lines part the entries; values can stand above or below the molecule they belong to.

The chains behind the UniProt entries cited, without tags or fusion partners.
UniProt Q92793: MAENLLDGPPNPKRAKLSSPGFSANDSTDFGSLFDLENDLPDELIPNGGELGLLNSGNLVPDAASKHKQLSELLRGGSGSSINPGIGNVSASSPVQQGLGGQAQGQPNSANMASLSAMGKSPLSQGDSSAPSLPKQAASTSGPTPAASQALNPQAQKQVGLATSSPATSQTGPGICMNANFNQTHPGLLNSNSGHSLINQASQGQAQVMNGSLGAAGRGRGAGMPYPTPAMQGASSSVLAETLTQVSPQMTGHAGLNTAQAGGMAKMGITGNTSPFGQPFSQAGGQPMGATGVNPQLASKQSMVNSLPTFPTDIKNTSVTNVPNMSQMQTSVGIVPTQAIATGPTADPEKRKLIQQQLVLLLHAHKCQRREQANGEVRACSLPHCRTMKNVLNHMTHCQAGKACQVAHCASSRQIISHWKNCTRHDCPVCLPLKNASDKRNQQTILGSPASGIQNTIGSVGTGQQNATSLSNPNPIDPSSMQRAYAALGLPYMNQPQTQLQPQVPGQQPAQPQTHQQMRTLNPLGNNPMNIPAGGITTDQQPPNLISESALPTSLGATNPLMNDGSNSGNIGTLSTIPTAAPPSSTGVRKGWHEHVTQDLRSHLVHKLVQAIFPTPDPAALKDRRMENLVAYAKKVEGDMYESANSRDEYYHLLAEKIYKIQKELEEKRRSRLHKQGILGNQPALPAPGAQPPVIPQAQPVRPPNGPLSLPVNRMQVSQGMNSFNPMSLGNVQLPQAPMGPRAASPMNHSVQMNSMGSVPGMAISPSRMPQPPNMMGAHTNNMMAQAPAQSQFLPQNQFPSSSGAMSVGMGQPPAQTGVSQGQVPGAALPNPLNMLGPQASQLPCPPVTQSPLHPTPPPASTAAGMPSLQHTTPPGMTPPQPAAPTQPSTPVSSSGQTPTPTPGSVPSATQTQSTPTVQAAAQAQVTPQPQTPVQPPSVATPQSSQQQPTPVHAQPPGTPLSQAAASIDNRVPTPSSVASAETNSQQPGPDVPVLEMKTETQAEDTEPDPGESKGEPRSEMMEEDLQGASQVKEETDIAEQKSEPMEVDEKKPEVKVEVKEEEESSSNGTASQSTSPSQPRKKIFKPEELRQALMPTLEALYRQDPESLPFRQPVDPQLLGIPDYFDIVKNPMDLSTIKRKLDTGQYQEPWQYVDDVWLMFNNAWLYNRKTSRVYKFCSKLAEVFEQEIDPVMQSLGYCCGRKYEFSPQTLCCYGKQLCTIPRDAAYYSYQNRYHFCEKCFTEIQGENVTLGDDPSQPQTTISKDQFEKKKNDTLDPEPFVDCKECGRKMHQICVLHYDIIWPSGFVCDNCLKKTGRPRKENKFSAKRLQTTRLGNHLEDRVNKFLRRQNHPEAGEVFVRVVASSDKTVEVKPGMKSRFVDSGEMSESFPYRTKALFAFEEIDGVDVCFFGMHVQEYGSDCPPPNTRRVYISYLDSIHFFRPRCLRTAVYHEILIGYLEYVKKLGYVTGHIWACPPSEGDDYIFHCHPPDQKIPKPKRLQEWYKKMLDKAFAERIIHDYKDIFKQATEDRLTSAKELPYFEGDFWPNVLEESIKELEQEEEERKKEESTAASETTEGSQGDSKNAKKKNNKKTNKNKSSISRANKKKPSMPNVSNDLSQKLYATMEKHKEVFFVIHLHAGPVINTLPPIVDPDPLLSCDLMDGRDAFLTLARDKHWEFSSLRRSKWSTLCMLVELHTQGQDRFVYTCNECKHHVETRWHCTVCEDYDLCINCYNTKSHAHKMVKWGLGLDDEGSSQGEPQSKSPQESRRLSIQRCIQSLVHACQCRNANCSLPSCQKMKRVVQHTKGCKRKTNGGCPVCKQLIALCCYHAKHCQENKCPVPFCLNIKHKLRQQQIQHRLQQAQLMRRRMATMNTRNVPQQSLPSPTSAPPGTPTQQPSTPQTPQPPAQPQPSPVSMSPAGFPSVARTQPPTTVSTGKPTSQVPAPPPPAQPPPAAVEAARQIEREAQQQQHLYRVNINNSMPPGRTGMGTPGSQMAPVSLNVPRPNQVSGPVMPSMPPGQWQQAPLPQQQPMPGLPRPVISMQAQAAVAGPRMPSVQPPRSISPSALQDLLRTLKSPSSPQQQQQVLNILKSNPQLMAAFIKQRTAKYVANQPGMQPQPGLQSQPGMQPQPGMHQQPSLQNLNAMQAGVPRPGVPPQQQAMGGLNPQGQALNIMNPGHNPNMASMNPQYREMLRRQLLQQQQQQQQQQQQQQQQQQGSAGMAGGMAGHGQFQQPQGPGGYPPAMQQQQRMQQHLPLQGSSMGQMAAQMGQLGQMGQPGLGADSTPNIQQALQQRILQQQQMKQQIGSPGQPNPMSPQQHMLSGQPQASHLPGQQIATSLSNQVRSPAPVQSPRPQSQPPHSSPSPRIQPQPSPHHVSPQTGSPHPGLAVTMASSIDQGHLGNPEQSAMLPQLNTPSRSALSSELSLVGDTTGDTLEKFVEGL

How the values were obtained:
Assay in all cases: co-IP
[1] = target: T1, NKX2-1 (human (endogenous in NCI-H660 and LuNE)) (UniProt P43699)
T1 sequence: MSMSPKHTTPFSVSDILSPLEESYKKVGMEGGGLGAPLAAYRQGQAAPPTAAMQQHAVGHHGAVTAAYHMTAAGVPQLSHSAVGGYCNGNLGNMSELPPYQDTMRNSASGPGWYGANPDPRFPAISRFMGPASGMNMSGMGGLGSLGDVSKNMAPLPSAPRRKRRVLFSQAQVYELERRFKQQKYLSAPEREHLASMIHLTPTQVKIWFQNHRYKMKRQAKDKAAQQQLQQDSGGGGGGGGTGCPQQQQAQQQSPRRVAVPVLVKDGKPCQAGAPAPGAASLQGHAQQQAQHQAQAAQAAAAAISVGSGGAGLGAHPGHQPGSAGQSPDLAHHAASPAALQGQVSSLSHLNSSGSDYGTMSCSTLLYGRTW

[2] = target: T2, FOXA2 (lentiviral, in LuNE cells) (human) (UniProt Q9Y261)
T2 sequence: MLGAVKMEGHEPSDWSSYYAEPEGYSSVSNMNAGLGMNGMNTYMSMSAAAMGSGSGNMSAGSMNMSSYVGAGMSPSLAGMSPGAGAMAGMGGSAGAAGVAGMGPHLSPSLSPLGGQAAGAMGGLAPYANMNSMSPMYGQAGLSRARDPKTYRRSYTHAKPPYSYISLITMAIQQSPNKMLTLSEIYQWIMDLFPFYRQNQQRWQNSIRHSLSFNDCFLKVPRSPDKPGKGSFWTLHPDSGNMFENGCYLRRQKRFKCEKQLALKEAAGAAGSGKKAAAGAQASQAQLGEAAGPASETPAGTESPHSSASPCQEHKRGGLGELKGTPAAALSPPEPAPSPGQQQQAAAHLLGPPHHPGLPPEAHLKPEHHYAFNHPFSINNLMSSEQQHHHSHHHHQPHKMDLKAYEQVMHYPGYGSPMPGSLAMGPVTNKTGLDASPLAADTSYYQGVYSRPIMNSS

[3] = target: T3, FOXA2 (endogenous, NCI-H660) (human (endogenous in NCI-H660)), Q9Y261; details: remark: other sources report otherwise
T3 chain: T2 sequence

[4] = target: T4, NKX2-1 (human (endogenous in NCI-H660 and LuNE)), P43699; details: remark: other sources report otherwise
T4 chain: T1 sequence

Molecule: CREBBP (CBP) (from UniProt Q92793 1-2442) (enzyme)
binding [1]: binds
binding [2]: binds

binding [3]: binds
B1: NKX2-1, P43699 1-371 (protein)
chain: T1 sequence

binding [4]: binds
B2: FOXA2 (endogenous, NCI-H660), Q9Y261 1-457 (protein)
chain: T2 sequence
